# Measured values taken from PubChem BioAssay AID624297 (National Center for Advancing Translational Sciences (NCATS), 2012).
# Out of some 340,000 compounds screened, about 6,200 (1.8%) were called active. The inconclusive results got no clear call from the source; some entries with a clear call stand among them for comparison. Calls follow the shape of the dose curve; as a rule, active = well fitted activation curve with a large enough effect; inconclusive = small, poorly fitted or top-dose-only effect; inactive = no such curve, though single readings can be large or run the other way. Where the call is inconclusive, the potency comes from a doubtful curve fit.
# Assay: A quantitative high throughput screen for small molecules that induce DNA re-replication in SW480 colon adenocarcinoma cells. Also: nearly all actives have a fitted effect of over 55% in size. As to re-replication activation: % of control where 0% means no effect.
# Details: Hoechst DNA content imaging, 48 h; re-replication activation: at 46.1 µM (top of the series) unless noted
# In short: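 Quantitative HTS format with DMSO vehicle controls; 48 hr drug incubation at 37 C, then 40 min Hoechst staining and scanning imager measurement at 405 nm excitation.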
# Potency is read from the fitted curve at half-maximal effect.
SMILES,Potency,re-replication activation
CCCC(=O)NC(c1ccc(OC)cc1)c1c(O)ccc2ccccc12 (configuration not stated),active: 20.6 µM,
O=C(NNC1=NCCC1)c1cccc(S(=O)(=O)N2CCCC2)c1,inactive,
CN(C)c1ccc2c(c1)OC(N)=C(C#N)C2c1cccc(F)c1 (configuration not stated),"inconclusive: 0.116 µM [activator, full curve, poor fit]",
CCOC(=O)c1cc(C)nc(S(C)(=O)=O)c1C#N,"inconclusive: 29.1 µM [activator, single point]",
O=C(Nc1ccc(C(=O)N2CCN(c3ccccc3F)CC2)cc1)C1=CSCCO1,"inconclusive: 9.2 µM [activator, single point]",
CCOC(=O)c1c(C)[nH]c(C)c1S(=O)(=O)N(C)CC(=O)NCc1ccc(F)cc1,"inconclusive: 0.231 µM [activator, full curve, poor fit]",
Cc1onc(-c2ccc(Cl)cc2)c1-c1ccnn1S(=O)(=O)c1cccc(C(F)(F)F)c1,"inconclusive: 0.0046 µM [activator, full curve, poor fit]",
O=C(Cc1cccs1)NNC(=S)NC(=O)c1ccccc1,inactive,
O=C(COC(=O)CN1C(=O)NC2(CCCCC2)C1=O)Nc1cc(F)ccc1F,inactive,
CCC(O)(CC)C(=O)N/N=C/c1cc(Br)cc(Br)c1O,"inconclusive: 2.31 µM [activator, partial curve, poor fit]",
CCCCNC(=S)NCC(c1ccccc1)c1c[nH]c2ccccc12 (configuration not stated),"inconclusive: 16.4 µM [activator, single point]",
CCCCOc1cccc(C(=O)Nc2ccc(N3CCN(CC)CC3)cc2)c1,"inconclusive: 35.5 µM [activator, single point]",
CCOC(=O)c1c(NC(=O)C(NCCN(C)C)c2ccccc2)sc2c1CCCC2 (configuration not stated),"inconclusive: 29.1 µM [activator, single point]",
Cc1cnc(C(=O)Nc2ccc(OC(F)(F)F)cc2)cn1,inactive,
Cc1nc(SCc2nc3ccc(Br)cc3[nH]2)c2oc3ccccc3c2n1,inactive,
CCN1/C(=C/c2sc(-c3ccccc3C)c[n+]2C)Sc2ccccc21,"inconclusive: 29.1 µM [activator, single point]",
COc1ccc2nc(NC(=O)c3cccc(OCc4c(C)noc4C)c3)sc2c1,"inconclusive: 2.24 µM [activator, full curve, poor fit]",
Cc1cc(C(=O)NNC(=O)c2ccc(C(F)(F)F)cc2)no1,"inconclusive: 8.2 µM [activator, partial curve, poor fit]",
O=C(Nc1ccc(/C=C/c2nc3ccccc3o2)cc1)c1cccc(C(F)(F)F)c1,"inconclusive: 14.6 µM [activator, partial curve, poor fit]",
CC1CCN(C(=O)COC(=O)/C=C/c2ccco2)CC1,,inconclusive: 114% [activator]
CN(C)S(=O)(=O)c1cccc(CNCC2COc3ccccc3O2)c1 (configuration not stated),inactive,
Clc1ccc2c(N/N=C/c3ccccc3Br)ccnc2c1,"inconclusive: 20.6 µM [activator, single point]",
Cc1nc(N2CCOCC2)c2c(C)c(C(=O)Nc3ccc(F)cc3Cl)sc2n1,inactive,

SMILES,Potency,re-replication activation
Cc1ccc(NC(=O)CN2C(=O)S/C(=C/c3ccc(-c4cc(C(=O)O)ccc4C)o3)C2=O)cc1C,"inconclusive: 32.6 µM [activator, partial curve, poor fit]",
CSCCC(=O)Nc1nc(-c2ccccn2)cs1,"inconclusive: 29.1 µM [activator, single point]",
C=CCN1C(C(=O)c2ccccc2)=C(OC(=O)COc2ccccc2)c2ccccc2S1(=O)=O,"inconclusive: 23.1 µM [activator, single point]",
CN(c1ccccc1)S(=O)(=O)c1cccc(C(=O)NNC(=O)c2ccccc2)c1,inactive,
NNC(=O)c1cc2sccc2s1,active: 13 µM,
O=C(CN1CCN(c2ccccn2)CC1)Nc1cccc(S(=O)(=O)N2CCOCC2)c1,"inconclusive: 9.2 µM [activator, partial curve, poor fit]",
O/N=C\c1ccc2noc(-c3ccc(Cl)cc3)c2c1,"inconclusive: 14.6 µM [activator, single point]",
Cc1cc(C)c(C#N)c(OCC(=O)c2ccc(Br)cc2)n1,"inconclusive: 18.4 µM [activator, single point]",
Cc1ccc(S(=O)(=O)C(C#N)c2nc3ccccc3nc2OCCO)cc1 (configuration not stated),"inconclusive: 29.1 µM [activator, single point]",
O=C(CCC(=O)OCC(=O)c1ccc([N+](=O)[O-])cc1)NC1CCCCC1,"inconclusive: 20.6 µM [activator, partial curve, poor fit]",
CCOc1cc(-c2c(C#N)c(N)nc3c2CCCC3C)ccc1O (configuration not stated),"inconclusive: 32.6 µM [activator, partial curve, poor fit]",
Cn1c(N)c(C(=O)COC(=O)Cc2ccc(F)cc2)c(=O)n(C)c1=O,inactive,
COC(=O)c1ccc(NC(=O)CN2CCN(S(=O)(=O)c3ccc(Br)cc3)CC2)cc1,"inconclusive: 0.164 µM [activator, full curve, poor fit]",
Cc1nc(Cl)c2oc3ccccc3c2n1,"inconclusive: 20.6 µM [activator, single point]",
O=C1NC(c2ccc3c(c2)OCO3)Nc2ccccc21 (configuration not stated),"inconclusive: 29.1 µM [activator, single point]",
CCOC(=O)c1c(C)c(C(=O)NCc2ccccn2)c(C)n1CC,"inconclusive: 29.1 µM [activator, single point]",
COc1cc(C(=O)Nc2sc(C)c(C)c2C(=O)O)cc(OC)c1OC,"inconclusive: 16.4 µM [activator, partial curve, poor fit]",
O=C(c1ccccc1)N1CCN(c2ccc(Cl)cc2)CC1,"inconclusive: 29.1 µM [activator, single point]",
CCOc1ccc(C(=O)COC(=O)c2c(-c3ccccc3)noc2C)cc1,"inconclusive: 1.46 µM [activator, full curve, poor fit]",
CSc1ccc(CN2CCCC(N3CCN(c4ccccc4)CC3)C2)cc1 (configuration not stated),"inconclusive: 20.6 µM [activator, single point]",
CC12CCC(C(=O)N3CCOCC3)([C@H](Br)C1=O)C2(C)C (some centres not stated),"inconclusive: 29.1 µM [activator, single point]",
C1=C(CCNC2=NCCCCC2)CCCC1,"inconclusive: 23.1 µM [activator, single point]",
COc1cc(/C=C2\C(=O)ON=C2c2ccccc2)cc(Br)c1O,"inconclusive: 23.1 µM [activator, single point]",

# Four of these compounds, reformatted:
SMILES	Potency	re-replication activation
COc1ccc2nc(NC(=O)c3cccc(OCc4c(C)noc4C)c3)sc2c1	inconclusive: 2.24 µM [activator, full curve, poor fit]	
O=C(Nc1ccc(/C=C/c2nc3ccccc3o2)cc1)c1cccc(C(F)(F)F)c1	inconclusive: 14.6 µM [activator, partial curve, poor fit]	
Cc1ccc(NC(=O)CN2C(=O)S/C(=C/c3ccc(-c4cc(C(=O)O)ccc4C)o3)C2=O)cc1C	inconclusive: 32.6 µM [activator, partial curve, poor fit]	
C=CCN1C(C(=O)c2ccccc2)=C(OC(=O)COc2ccccc2)c2ccccc2S1(=O)=O	inconclusive: 23.1 µM [activator, single point]	

# The results go on:

SMILES,Potency,re-replication activation
O=C(COc1ccccc1)NCc1ccccc1,inactive,
O=C(NN=Cc1ccccc1C(=O)O)c1cccc(S(=O)(=O)Nc2cccc(C(F)(F)F)c2)c1,"inconclusive: 29.1 µM [activator, single point]",
CC(C)CC[n+]1ccn(-c2nc3ccccc3nc2[N-]S(=O)(=O)c2ccc(Cl)cc2)c1,"inconclusive: 18.4 µM [activator, single point]",
O=C(NC1CCCC1)C1CC(=O)N(c2ccc(F)c(Cl)c2)C1 (configuration not stated),"inconclusive: 9.2 µM [activator, partial curve]",
CC(C)(C)C(=O)NC(=S)NNC(=O)c1ccc(-c2ccccc2)cc1,"inconclusive: 3.66 µM [activator, full curve, poor fit]",
COc1ccc(C2=NN(C(C#N)c3ccc(OC)cc3)C(c3ccccc3)C2)cc1 (configuration not stated),inactive,
CCOc1cc(/C=C2/C(=N)N3N=C(C)SC3=NC2=O)ccc1OS(=O)(=O)c1ccc(C)cc1,"inconclusive: 29.1 µM [activator, single point]",
CCS(=O)(=O)c1c([N+](=O)[O-])ncn1C,"inconclusive: 29.1 µM [activator, single point]",
Cc1ccc(N(C)S(=O)(=O)c2cccc(C(=O)Nc3ccc(N4CCOCC4)cc3)c2)cc1,inactive,
Cc1cc(NC(=O)CSCC(=O)N(c2ccc(F)cc2)C(C(=O)NC2CCCCC2)c2ccc(O)c(O)c2)no1 (configuration not stated),inactive,
CCCCCNc1nc(N2CCCC2)c2c(c1C#N)CCN(C)C2,"inconclusive: 16.4 µM [activator, single point]",
CCOc1cc(/C=N/n2c(C)nc3ccccc3c2=O)ccc1O,"inconclusive: 9.2 µM [activator, partial curve]",
CCOc1ccc(S(=O)(=O)N2CCN(C(=O)c3ccco3)CC2)cc1,"inconclusive: 2.91 µM [activator, partial curve, poor fit]",
Cn1c(SCC(=O)Nc2ccc(Cl)cc2)nc(O)cc1=O,"inconclusive: 1.46 µM [activator, partial curve, poor fit]",
CCOC(=O)c1sc2nccc(N(C)C)c2c1N=CNOC,inactive,
Cc1cccc(NC(=O)/C(C#N)=C/c2ccc[nH]2)c1C,"inconclusive: 0.0041 µM [activator, full curve, poor fit]",
Cc1cc(-c2nc3ccccc3s2)ccc1N,"inconclusive: 18.4 µM [activator, partial curve]",
Cc1nn(-c2ccc(F)cc2)c(Cl)c1/C=C/C(=O)OCC(=O)Nc1c(F)c(F)c(F)c(F)c1F,inactive,
Cc1ccccc1OCCN1C(=O)NC2(CCCc3ccccc32)C1=O (configuration not stated),"inconclusive: 4.11 µM [activator, single point]",
Cc1cnc(C(=O)Nc2ccccc2C(=O)N2CCOCC2)cn1,inactive,
N#Cc1c(N2CCCCC2)nc(N)c2c(N)nc3c(c12)CC(CCl)O3 (configuration not stated),"inconclusive: 20.6 µM [activator, single point]",
